Experimental data taken from patent US20220283177A1, “METHOD FOR DETECTING INTERACTION AND AFFINITY BETWEEN LIGAND AND PROTEIN” (DALIAN INSTITUTE OF CHEMICAL PHYSICS, CHINESE ACADEMY OF …, priority 2019, published 2022).
Like-named read-outs stand apart in the source and are kept apart here.

Experiments:
[1] = system: protein kinases in 293T cell lysate; assay: CA-based SIP with TMT10 labeling, proteome-wide target screening of staurosporine; details: 20 μM staurosporine
[2] = system: protein kinases in 293T cell lysate; details: 20 μM staurosporine
[3] = second threshold, printed ΔDistance≥0.5 / ≤0.5

SMILES: CN[C@@H]1C[C@H]2O[C@@](C)([C@@H]1OC)n1c3ccccc3c3c4c(c5c6ccccc6n2c5c31)C(=O)NC4 [staurosporine]
- non-protein kinases share of total candidate binding proteins ([1]; filter ΔDistance≥0.5 / ≤0.5): 32%
- protein kinases among candidate proteins ([1]; filter ΔDistance≥0.5 / ≤0.5): 36
- total candidate proteins identified ([1]; filter ΔDistance≥0.5 / ≤0.5): 53
- candidate proteins obtained ([1]; filter ΔDistance≥0.7 / ≤0.7): 33
- non-protein kinases share of total candidate binding proteins [1, 3]: 12%
- protein kinases among candidate binding proteins [1, 3]: 29
- total candidate binding proteins identified [1, 3]: 33
- stabilized proteins commonly identified in CA-based SIP and Savitski-TPP ([1]; ΔDistance≥0.7, 17 were protein kinases): 19
- proteins only identified in the SIP method but not in Savitski-TPP ([1]; ΔDistance≥0.7, including 12 protein kinases): 14
- number of protein kinases among stabilized proteins ([2]; 15% A.E.A.): 7
- number of protein kinases among stabilized proteins ([2]; 16% A.E.A.): 5
- number of protein kinases among stabilized proteins ([2]; 17% A.E.A.): 4
- share of quantified protein kinases significantly stabilized after binding of drug (9/19) ([2]; three A.E.A. concentrations combined): 47.37%
